# From PMC12594568
# Amino acid sequences for entries named in this document (tags omitted).
# UniProt P31749: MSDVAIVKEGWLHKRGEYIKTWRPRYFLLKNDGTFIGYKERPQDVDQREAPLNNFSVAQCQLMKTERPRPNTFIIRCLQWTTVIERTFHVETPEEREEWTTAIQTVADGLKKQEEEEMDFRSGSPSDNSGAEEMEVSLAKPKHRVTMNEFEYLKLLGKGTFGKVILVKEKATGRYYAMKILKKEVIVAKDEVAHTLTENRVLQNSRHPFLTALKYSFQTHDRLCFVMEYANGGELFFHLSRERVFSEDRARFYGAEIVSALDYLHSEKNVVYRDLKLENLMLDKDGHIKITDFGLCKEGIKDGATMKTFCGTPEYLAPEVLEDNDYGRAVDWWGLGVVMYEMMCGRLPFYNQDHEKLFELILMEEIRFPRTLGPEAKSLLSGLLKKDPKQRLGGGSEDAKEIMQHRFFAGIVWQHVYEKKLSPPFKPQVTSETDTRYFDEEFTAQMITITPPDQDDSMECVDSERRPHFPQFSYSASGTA
# UniProt Q86UX6: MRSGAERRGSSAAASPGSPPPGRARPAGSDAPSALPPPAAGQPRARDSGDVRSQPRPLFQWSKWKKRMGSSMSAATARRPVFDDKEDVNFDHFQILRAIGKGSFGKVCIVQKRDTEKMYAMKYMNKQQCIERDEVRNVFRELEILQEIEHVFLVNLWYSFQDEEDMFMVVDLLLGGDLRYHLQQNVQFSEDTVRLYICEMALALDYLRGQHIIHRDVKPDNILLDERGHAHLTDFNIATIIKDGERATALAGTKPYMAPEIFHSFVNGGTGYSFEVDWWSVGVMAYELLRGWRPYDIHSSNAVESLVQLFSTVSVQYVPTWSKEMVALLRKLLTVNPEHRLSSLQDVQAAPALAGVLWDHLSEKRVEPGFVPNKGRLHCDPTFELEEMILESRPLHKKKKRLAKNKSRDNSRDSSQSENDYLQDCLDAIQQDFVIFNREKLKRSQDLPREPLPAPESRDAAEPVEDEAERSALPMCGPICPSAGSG
# These are yes or no findings as the source states them, for the method shown. Binding seen in cells or lysates may run through a third protein. Some binding calls cover weakened binding; strength is not graded here.
# Biological target: AKT1 (human (endogenous in HCT116)) (UniProt P31749)
# Assay: co-IP; HCT116 whole-cell lysates (500 μg) incubated overnight at 4 °C with 2 μg anti-STK32C or anti-HSP90 antibodies plus protein A/G agarose beads; Western blot; also after STK32C siRNA
substance,measurement,value
serine/threonine kinase 32C (STK32C) (from UniProt Q86UX6 1-486),binding,binds
